Inconclusive means that the source gave no clear call. Such entries were picked first, then a sample of the others. Where the call is inconclusive, the potency comes from a doubtful curve fit. Activity calls are given as the source filed them. Calls follow the shape of the dose curve; as a rule, active = well fitted inhibition curve with a large enough effect; inconclusive = small, poorly fitted or top-dose-only effect; inactive = flat fitted curve, though single readings scatter.
target: Isocitrate dehydrogenase [NADP] cytoplasmic (Homo sapiens) (UniProt O75874); assay: qHTS for Inhibitors of mutant isocitrate dehydrogenase 1 (IDH1): confirmation assay for probe SAR; settings: recombinant IDH1 R132H, NADPH depletion, diaphorase/resazurin fluorescence; series mostly up to 100 µM; activity change, negative = inhibition: at the top concentration
Text: Malignant glioblastomas (WHO grade IV), including primary and secondary glioblastomas, are among the most lethal with a median survival of one year, and unfortunately they are also the most prevalent type of brain tumors. By and large the standard of care of gliomas remains the use of the oral alkylating agent temozolomide and radiotherapy following surgical tumor resection. There is an urgent unmet medical need for novel therapeutics for gliomas. IDH mutations occur in up to 70% of grade II-IV secondary glioblastomas, and IDH1 R132H is the most prevalent mutation. […] Wild-type IDH1 catalyzes the conversion of isocitrate to -ketoglutarate with the concomitant reduction of NADP+ to NADPH. In contrast, IDH1 R132H catalyzes the conversion of -ketoglutarate to 2-hydroxyglutarate (2-HG) with the concomitant oxidation of NADPH to NADP+ [5]. Recently, a second significant advancement for the field was the finding that IDH is an oncogene, and that its metabolic product 2-HG may contribute to the pathogenesis of IDH-mutated cancers. […] Although this link to cancer is tantalizing, the direct evidence of how 2-HG drives pathogenesis of gliomas and AML remains a subject of further research. The goal of this confirmatory assay is to find small-molecule inhibitors of IDH1 R132H using a biochemical assay that measures substrate NADPH consumption through the use of a diaphorase/resazurin-coupled system. Inhibition of the IDH1 R132H enzymatic reaction leads to an increase in the amount of NADPH relative to a DMSO control and a concomitant increase in the fluorescence of the diaphorase/resazurin enzyme product resorufin at 590 nm. Compounds were screened as concentration-titration series that ranged from 100 microM to 5 nM. NIH Molecular Libraries Probe Production Network [MLPCN] NIH Chemical Genomics Center [NCGC] MLSCN Grant: R03 DA032129 PI Name: Dr. Lenny Dang
First, 1 microL/well of compound or DMSO control was dispensed into black, solid 384-well plates. Second, 25 microL/well of substrate buffer was added (20 mM Tris buffer, pH 7.5, containing final concentrations of 10 mM MgCl2, 20 mM NaCl, 0.05% BSA, 0.004 mM NADPH, and 1 mM -ketoglutarate), and the plate was spun briefly at 271xg. Third, 25 microL/well of enzyme buffer was added (20 mM Tris buffer, pH 7.5, containing final concentrations of 10 mM MgCl2, 20 mM NaCl, 0.05% BSA, 2 mM beta-ME and 2.6 nM IDH1 R132H), and the plate was briefly spun at 271xg. The plate was then shaken for 1 minute and allowed to sit at room temperature for 50 minutes before detection reagent was added (20 mM Tris buffer, pH 7.5, containing final concentrations of 10 mM MgCl2, 20 mM NaCl, 0.05% BSA, 0.32 microM diaphorase and 10 microM resazurin). The plate was spun an 271xg briefly and then shaken for 1 minute at room temperature before reading the fluorescence at 590 nm with a Spectramax M5 plate reader (Ex 544, Em 590, bodipy filter). The %Activity was determined from the corrected fluorescence values. As no specific IDH1 R132H inhibitors have been identified in the literature, 1x (2.6 nM) and 0x IDH1 R132H enzyme controls (untreated) were included to normalize %Activity of identified inhibitors; 0x enzyme values corresponded to 100%Activity (full inhibition), while 1x IDH1 R132H enzyme values were used to normalize 0%Activity (no inhibition ). Concentration-response curves were fitted to the signals arising from the resulting fluorescence. The concentration-response curves were then classified based on curve quality (r2), response magnitude and degree of measured activity, and compounds were subsequently categorized based on their curve class. […] Keywords: Isocitrate dehydrogenase, IDH1, IDH1 R132H, 2-HG, 2-hydroxyglutarate, AML, glioma, MLSMR, MLPCN, NIH Roadmap, qHTS, NCGC

By UniProt entry, the sequences of proteins in these tests, tags left out.
UniProt O75874, whole entry, looked up: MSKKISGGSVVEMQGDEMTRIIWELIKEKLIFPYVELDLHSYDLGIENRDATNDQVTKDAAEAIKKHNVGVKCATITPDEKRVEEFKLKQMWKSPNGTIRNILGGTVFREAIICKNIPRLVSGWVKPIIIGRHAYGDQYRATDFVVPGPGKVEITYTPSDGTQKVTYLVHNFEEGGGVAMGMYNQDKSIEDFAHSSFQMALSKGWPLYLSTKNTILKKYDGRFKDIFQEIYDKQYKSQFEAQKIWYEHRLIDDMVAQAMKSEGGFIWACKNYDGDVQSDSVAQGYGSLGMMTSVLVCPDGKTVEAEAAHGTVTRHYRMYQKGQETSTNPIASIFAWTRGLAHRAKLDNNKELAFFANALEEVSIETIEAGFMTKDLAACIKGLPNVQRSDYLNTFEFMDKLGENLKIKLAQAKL
UniProt O75874, whole entry R132H: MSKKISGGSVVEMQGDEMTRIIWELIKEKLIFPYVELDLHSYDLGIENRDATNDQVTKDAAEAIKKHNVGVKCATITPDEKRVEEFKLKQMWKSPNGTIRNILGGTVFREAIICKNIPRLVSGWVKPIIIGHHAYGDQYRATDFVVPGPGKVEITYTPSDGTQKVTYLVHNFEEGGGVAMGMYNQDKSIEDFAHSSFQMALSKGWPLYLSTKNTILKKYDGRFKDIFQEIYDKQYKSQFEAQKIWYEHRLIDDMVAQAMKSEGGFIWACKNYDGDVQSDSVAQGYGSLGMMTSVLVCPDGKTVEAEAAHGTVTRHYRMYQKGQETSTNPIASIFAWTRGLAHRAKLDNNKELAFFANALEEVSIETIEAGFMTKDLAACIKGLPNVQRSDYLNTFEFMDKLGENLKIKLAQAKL

SMILES	Potency	activity change, negative = inhibition
Cc1nc(C)c(C(=O)N(c2cccc(F)c2)C(C(=O)NC2CCCCC2)c2ccccc2)s1 (stereo unspecified)	inconclusive: 0.197 µM [inhibitor]	
Cc1ccccc1C(C(=O)N(C)C1CCCCC1)N(C(=O)Cc1cccs1)c1cccc(F)c1 (stereo unspecified)	inconclusive: 4.03 µM [inhibitor, full curve]	
O=C(NC1CCCCC1)C(C1CCCC1)N(C(=O)Cc1cccs1)c1cccc(F)c1 (stereo unspecified)	inconclusive: 5.15 µM [inhibitor, full curve]	
COc1cccc(C(C(=O)NC2CCCCC2)N(C(=O)c2cccs2)c2ccc3c(c2)OCO3)c1 (stereo unspecified)	inconclusive: 3.25 µM [inhibitor, full curve]	
O=C(NC1CCCCC1)C(c1ccncc1)N(C(=O)Cc1cccs1)c1cccc(F)c1 (stereo unspecified)	active: 1.62 µM	
COc1ccc(C(C(=O)NC2CCCC2)N(C(=O)Cc2cccs2)c2cccc(F)c2)cc1OC (stereo unspecified)		inactive: -19.1%

Reference: PubChem BioAssay AID624023 (National Center for Advancing Translational Sciences (NCATS), 2012)
